Some of these results come from one statement about several compounds together.
System: C5a receptor from PMN membranes
Experiment: Release of binding sites from the membrane: total binding activity of detergent extracts at saturation compared with intact membrane
Set-up: species or system human
Conditions: two experiments with direct comparison
Description: In additional experiments (results not shown) the ability of digitonin and β-dodecyl maltoside to release binding sites from the membrane was determined by comparing the total binding activity of the extracts, at saturation, with that of an equivalent amount of intact membrane. In the two experiments in which a direct comparison was made the efficiencies of the detergents appeared to be similar, both solubilized 30-35% of the receptors initially present in the membrane. However, over the course of the work we did observe variability from experiment to experiment and it is our impression that, on average, digitonin was more efficient than β-dodecyl maltoside (for an example, see Table I).

Compound: C[C@@H]1CC[C@@]2(OC1)O[C@H]1[C@@H](O)[C@H]3[C@@H]4CC[C@H]5C[C@@H](O[C@@H]6O[C@H](CO)[C@H](O[C@@H]7O[C@H](CO)[C@@H](O)[C@H](O[C@@H]8OC[C@@H](O)[C@H](O)[C@H]8O)[C@H]7O[C@@H]7O[C@H](CO)[C@H](O)[C@H](O[C@@H]8O[C@H](CO)[C@@H](O)[C@H](O)[C@H]8O)[C@H]7O)[C@H](O)[C@H]6O)[C@H](O)C[C@]5(C)[C@H]4CC[C@]3(C)[C@H]1[C@@H]2C [Digitonin]
- receptors initially present in the membrane solubilized: 30-35%

From patent EP0377489A2, “Purified C5a receptor from human polymorphonuclear leukocytes” (MERCK & CO. INC., priority 1989, dated 1990)
